These results are taken from publication doi:10.1101/2021.03.26.437179.

By UniProt entry, the sequences of proteins in these tests, tags left out. Where a name states a change or a piece, a line headed by the entry shows the natural chain unless it says otherwise.
UniProt P05804: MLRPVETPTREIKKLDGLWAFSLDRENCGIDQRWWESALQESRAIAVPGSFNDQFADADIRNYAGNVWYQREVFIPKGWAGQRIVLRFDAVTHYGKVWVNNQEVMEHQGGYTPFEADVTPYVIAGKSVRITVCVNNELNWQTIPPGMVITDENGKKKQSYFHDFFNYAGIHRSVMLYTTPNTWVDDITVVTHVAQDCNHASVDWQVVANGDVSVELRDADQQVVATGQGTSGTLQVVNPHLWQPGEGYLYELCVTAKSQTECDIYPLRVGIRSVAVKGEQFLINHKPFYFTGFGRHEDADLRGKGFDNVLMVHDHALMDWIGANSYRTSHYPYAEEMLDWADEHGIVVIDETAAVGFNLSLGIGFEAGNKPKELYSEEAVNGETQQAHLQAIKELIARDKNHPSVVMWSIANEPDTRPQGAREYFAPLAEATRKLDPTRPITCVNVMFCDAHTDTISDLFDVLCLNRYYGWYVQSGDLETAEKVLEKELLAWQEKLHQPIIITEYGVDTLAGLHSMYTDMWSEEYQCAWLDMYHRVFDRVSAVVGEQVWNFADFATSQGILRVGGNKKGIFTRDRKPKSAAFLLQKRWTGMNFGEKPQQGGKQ
UniProt Q38851: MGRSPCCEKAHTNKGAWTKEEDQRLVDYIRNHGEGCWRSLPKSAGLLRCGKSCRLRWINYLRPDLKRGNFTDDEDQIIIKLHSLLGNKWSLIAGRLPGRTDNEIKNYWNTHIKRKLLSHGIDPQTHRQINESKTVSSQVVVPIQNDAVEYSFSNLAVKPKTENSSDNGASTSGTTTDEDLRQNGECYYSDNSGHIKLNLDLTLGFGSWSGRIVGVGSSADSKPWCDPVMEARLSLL

These are yes or no findings as the source states them, for the method shown. For part of these data: In cells and extracts the contact can be indirect. Some entries that bind do so weakly or less than the wild type. Where a sequence is shown, tags or fusion partners need not be part of it.

Assay [1] deals with T1, PUB26-ccLUC (Arabidopsis thaliana) (UniProt Q9FXA4).
T1 sequence: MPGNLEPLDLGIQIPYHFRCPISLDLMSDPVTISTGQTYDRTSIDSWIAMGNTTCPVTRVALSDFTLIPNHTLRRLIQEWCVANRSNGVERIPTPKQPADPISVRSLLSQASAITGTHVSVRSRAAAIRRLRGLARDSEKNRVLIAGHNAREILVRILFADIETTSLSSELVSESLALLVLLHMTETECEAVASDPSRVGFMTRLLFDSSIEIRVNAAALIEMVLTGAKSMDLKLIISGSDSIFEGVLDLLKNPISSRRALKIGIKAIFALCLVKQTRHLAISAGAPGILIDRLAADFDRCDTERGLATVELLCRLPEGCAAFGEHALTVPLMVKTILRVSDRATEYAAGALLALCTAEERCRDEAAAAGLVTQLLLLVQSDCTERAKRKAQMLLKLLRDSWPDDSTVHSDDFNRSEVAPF
The assay can be described thus: split reporter.

Assay [2] concerns the target T2, PUB25-ccLUC (Arabidopsis thaliana) (UniProt Q9LT79).
T2 sequence: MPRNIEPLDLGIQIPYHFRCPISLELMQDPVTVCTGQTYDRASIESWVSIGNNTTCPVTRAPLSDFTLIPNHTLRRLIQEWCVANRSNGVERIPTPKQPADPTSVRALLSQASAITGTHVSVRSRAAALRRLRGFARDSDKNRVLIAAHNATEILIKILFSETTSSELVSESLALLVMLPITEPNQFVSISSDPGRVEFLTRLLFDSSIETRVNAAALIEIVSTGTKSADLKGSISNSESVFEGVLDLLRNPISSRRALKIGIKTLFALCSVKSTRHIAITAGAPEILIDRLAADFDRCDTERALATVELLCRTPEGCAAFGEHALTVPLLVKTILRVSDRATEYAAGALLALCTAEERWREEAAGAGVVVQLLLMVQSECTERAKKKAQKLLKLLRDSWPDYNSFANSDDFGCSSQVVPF
The assay can be described thus: split reporter.

The target of assay [3] is T3, BD-PUB25 (Arabidopsis thaliana) (UniProt Q9LT79).
T3 sequence: T2 sequence
The assay is described as follows: two-hybrid.

Assay [4] concerns the target T4, BD-PUB26 (Arabidopsis thaliana) (UniProt Q9FXA4).
T4 sequence: T1 sequence
The assay can be described thus: two-hybrid.

Regarding GUS-GZnLUC (from UniProt P05804 1-603), the binding entry in assay [1] and in assay [2] was “no binding” throughout.

On to “MYB6 (1-111) (from UniProt Q38851 1-111) (domain or fragment)”, for which the binding entry in assay [3] and in assay [4] was “binds” throughout.

For the substance MYB6-GZnLUC (from UniProt Q38851 1-236), the binding entry in assay [1] and in assay [2] was “binds” in each case.
